The list shows a part of the results. Many values rest on one well or one pass, so single values are uncertain.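 The apoptosis fraction was the count of cleaved-PARP antibody-stained nuclei relative to all DNA-stained nuclei, imaged in 1,536-well plates. Screening doses were set so most cells survived, and baseline and induced cleaved-PARP levels vary greatly across cell lines.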

From the supplement of paper PMC4604168 (melanoma cell lines) come the findings set out here.

The test system of this assay is UACC62. In words: cleaved PARP positive nuclei fraction relative to DMSO control; melanoma cells; higher = more apoptosis. Particulars: library dose: low library concentration; 72 h.
For the compound `Cc1ccc(NC(=O)c2cccc(N(C)C)c2)cc1NC(=O)c1ccc(O)cc1` + O=c1cc(-c2cccc3c2Sc2ccccc2S3)oc(N2CCOCC2)c1 [KU55933] (first compound 2 µM, partner dose 1 µM), the “cleaved PARP positive nuclei fraction” value was determined as 44%.

On to `OCCn1cc(-c2cnc3nnn(Cc4ccc5ncccc5c4)c3n2)cn1` + Cc1cc([N+](=O)[O-])ccc1NS(=O)(=O)c1cc(Cl)ccc1Cl [FH535] (first compound 1 µM, partner dose 1 µM), for which the “cleaved PARP positive nuclei fraction” value was 106%.

As to `Cn1cncc1[C@@](N)(c1ccc(Cl)cc1)c1ccc2c(c1)c(-c1cccc(Cl)c1)cc(=O)n2C` [tipifarnib] + O=c1cc(-c2cccc3c2Sc2ccccc2S3)oc(N2CCOCC2)c1 [KU55933] (first compound 0.01 µM, partner dose 1 µM), the “cleaved PARP positive nuclei fraction” value was determined as 192%.

As to `NC(=O)Nc1cc(-c2cccc(F)c2)sc1C(=O)N[C@H]1CCCNC1` + c1cc(-c2cnn3cc(-c4ccc(OCCN5CCCCC5)cc4)cnc23)ccn1 [Dorsomorphin] (first compound 0.02 µM, partner dose 0.4 µM), the “cleaved PARP positive nuclei fraction” value was 40.8%.

As for `O=C(Nc1cccc(Cl)c1)Nc1ncc(CCNc2ncnc3ccsc23)s1` + CCc1ccc(CCOc2ccc(CC3SC(=O)NC3=O)cc2)nc1 [pioglitazone] (first compound 0.0008 µM, partner dose 2 µM), the “cleaved PARP positive nuclei fraction” value came to 40.4%.

`C[C@]1(c2nc3c(C(N)=O)cccc3[nH]2)CCCN1` [Veliparib] + COc1ccc2c(c1)CCC1C2CCC2(C)C(NCCCCCCN3C(=O)C=CC3=O)CCC12 [U73122] (first compound 1.4 µM, partner dose 0.4 µM): the “cleaved PARP positive nuclei fraction” value came out at 236%.

For `C[C@@H]1CCN(C(=O)CC#N)C[C@@H]1N(C)c1ncnc2[nH]ccc12` + COc1ccc2c(c1)CCC1C2CCC2(C)C(NCCCCCCN3C(=O)C=CC3=O)CCC12 [U73122] (first compound 1 µM, partner dose 0.4 µM), the “cleaved PARP positive nuclei fraction” value stood at 62.2%.

`OCCn1cc(-c2cnc3nnn(Cc4ccc5ncccc5c4)c3n2)cn1` + COC(=O)c1sccc1S(=O)(=O)Nc1ccc(Nc2ccccc2)cc1OC [GSK0660] (first compound 1 µM, partner dose 1 µM): the “cleaved PARP positive nuclei fraction” value is 292%.

For `O=C(Nc1cccc(Cl)c1)Nc1ncc(CCNc2ncnc3ccsc23)s1` + Oc1nc(-c2ccc(C(F)(F)F)cc2)nc2c1CSCC2 [XAV939] (first compound 0.0008 µM, partner dose 2 µM), the “cleaved PARP positive nuclei fraction” value was determined as 68.9%.

`O=C(Nc1cccc(Cl)c1)Nc1ncc(CCNc2ncnc3ccsc23)s1` + COc1cc2ncnc(Nc3ccc(Oc4ccccc4)cc3)c2cc1OC [SrcI1] (first compound 0.0008 µM, partner dose 2 µM): the “cleaved PARP positive nuclei fraction” value came out at 117%.

With `COc1cc(Nc2ncc(F)c(Nc3ccc4c(n3)NC(=O)C(C)(C)O4)n2)cc(OC)c1OC` [Tamatinib] + COc1cc(N2CCC(N3CCN(C)CC3)CC2)ccc1Nc1ncc(Cl)c(Nc2ccccc2S(=O)(=O)C(C)C)n1 [NVP-TAE684] (first compound 0.4 µM, partner dose 0.08 µM), the “cleaved PARP positive nuclei fraction” value was found to be 91%.
